Reference: article PMC4100929
For at least one entry, the source does not settle the construct or the ends of the probe. A weaker result is weaker than the reference pair of the same experiment.

Protein sequences, listed by entry. Tags and fused reporters are not part of them. Residues count along the entry.
UniProt P63015, 4-130: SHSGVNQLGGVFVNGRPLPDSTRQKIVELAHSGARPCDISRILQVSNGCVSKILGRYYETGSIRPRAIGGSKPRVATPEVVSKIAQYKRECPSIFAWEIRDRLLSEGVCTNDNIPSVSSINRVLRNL

How the values were obtained:
[1] = biological target: GST-Pax6 paired domain (PD) (UniProt P63015); experiment: EMSA; settings: EMSA: 2 ug protein, 20000 cpm 32P probe, 1 ug poly(dI-dC), 5% TBE polyacrylamide gel, recombinant protein, label: 32P 5' end
[2] = tested on: GST-Pax6(5a) paired domain (PD5a); experiment: EMSA; settings: not bound at all or very weakly; EMSA: 2 ug protein, 20000 cpm 32P probe, 1 ug poly(dI-dC), 5% TBE polyacrylamide gel; recombinant protein; label: 32P 5' end

Sequence | binding result [1] | binding result [2] | binding result ([1]; binds, less efficiently than OPT and MUT)
CATCTGGGGGCGCCCAGATCATCAATTCGGAACGCTCCGGGCAAGAGGGG (double strand) [mDkk3 BSAP MUT] | binds more weakly |  | 
GGAGGAAGCTACGCTCAATGAGATGTTTCGAGAGGTGGAGGAG (double strand) [mDkk3 5aCON WT] |  | binds more weakly | binds more weakly
